Reference: patent US7413909
No constants are given. Whether binding was seen depends on the method and setting. Binding seen in cells or lysates may run through a third protein. Here binding means that the protein was enriched with, or labelled near, the bait; the list need not be complete.

Chains of the proteins cited; added tags and fusions are not shown.
UniProt P07477: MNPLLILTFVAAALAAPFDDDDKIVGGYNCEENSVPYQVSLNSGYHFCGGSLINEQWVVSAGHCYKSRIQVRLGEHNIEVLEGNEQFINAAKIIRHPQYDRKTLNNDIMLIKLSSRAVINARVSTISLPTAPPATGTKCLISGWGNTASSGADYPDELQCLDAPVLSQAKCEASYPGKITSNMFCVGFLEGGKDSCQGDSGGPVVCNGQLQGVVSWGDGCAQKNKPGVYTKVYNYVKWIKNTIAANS

Experiments:
[1] = biological target: Trypsin from human duodenal aspirate (human) (UniProt P07477); assay: immobilized inhibitor, capture from human duodenal aspirate, laser desorption TOF mass spectrometry
[2] = biological target: Trypsin from human duodenal aspirate (human) (UniProt P07477); assay: inhibitor on AffiGel 10 (also on nylon and acrylic probe tips), capture from human duodenal aspirate, laser desorption TOF mass spectrometry

binding [1]: binds
binding [2]: binds
B1: Soybean trypsin inhibitor (Sigma) (protein, UniProt P01070 25-205, looked up)
chain: DFVLDNEGNPLENGGTYYILSDITAFGGIRAAPTGNERCPLTVVQSRNELDKGIGTIISSPYRIRFIAEGHPLSLKFDSFAVIMLCVGIPTEWSVVEDLPEGPAVKIGENKDAMDGWFRLERVSDDEFNNYKLVFCPQQAEDDKCGDIGISIDHDDGTRRLVVSKNKPLVVQFQKLDKESL
